The test addresses Glutathione S-transferase-tagged LsTUB (GST-TUB) (Laodelphax striatellus). Kind of test: pull-down.

No constants are given. Whether binding was seen depends on the method and setting. In cells and extracts the contact can be indirect. Binding calls can cover weak binding; strength is not graded here.

B1: Rice stripe virus nonstructural protein 3 (NS3) in extracts of viruliferous SBPH (protein, UniProt P26658 1-211)
chain: MNVFTSSVGSVEFDHPLLLENDLTSLSINCDDVHCSSRALCYIYDIHSSRHPSIDEHQFLRLLHGPDDAVTLGSFLKTLIWILSHDKNLPEEYRLPTIMMSSSYVKFFTEVKPRPPSTNCWTCRMSKDNLPFTVPSVKGFPPDAELYIVPISDHDGKPVKFDNRKTLYRSPSKKRHKYVISSDKPPLSARYVKYVDSSALESLPGSSPAVL
For B1, the binding entry was “binds”.

(Values after article doi:10.1101/502831.)
